# From the supplement of paper PMC12819154, “High-throughput peptide-centric local stability assay extends protein–ligand identification to membrane proteins, tissues and bacteria” (Nature Structural & Molecular Biology, 2025)
# The chains behind the UniProt entries cited, without tags or fusion partners. Where a name states a change or a piece, a line headed by the entry shows the natural chain unless it says otherwise.
# UniProt Q96KB5: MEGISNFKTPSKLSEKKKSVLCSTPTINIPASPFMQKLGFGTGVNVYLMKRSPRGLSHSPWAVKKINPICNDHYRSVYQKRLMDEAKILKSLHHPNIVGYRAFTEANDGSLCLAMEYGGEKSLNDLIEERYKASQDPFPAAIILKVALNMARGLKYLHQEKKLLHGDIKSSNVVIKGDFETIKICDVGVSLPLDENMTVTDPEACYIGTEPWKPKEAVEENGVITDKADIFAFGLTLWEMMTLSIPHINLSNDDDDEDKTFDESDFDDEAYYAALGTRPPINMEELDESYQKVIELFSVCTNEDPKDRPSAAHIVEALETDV
# UniProt Q96LJ8: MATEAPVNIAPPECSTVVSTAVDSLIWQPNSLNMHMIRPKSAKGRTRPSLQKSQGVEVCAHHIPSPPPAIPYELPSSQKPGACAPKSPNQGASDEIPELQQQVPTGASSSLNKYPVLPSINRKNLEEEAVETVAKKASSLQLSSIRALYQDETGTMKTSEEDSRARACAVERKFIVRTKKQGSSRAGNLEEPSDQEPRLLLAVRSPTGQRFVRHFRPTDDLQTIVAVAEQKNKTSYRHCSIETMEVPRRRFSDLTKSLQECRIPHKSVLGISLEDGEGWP
# UniProt Q96IT1: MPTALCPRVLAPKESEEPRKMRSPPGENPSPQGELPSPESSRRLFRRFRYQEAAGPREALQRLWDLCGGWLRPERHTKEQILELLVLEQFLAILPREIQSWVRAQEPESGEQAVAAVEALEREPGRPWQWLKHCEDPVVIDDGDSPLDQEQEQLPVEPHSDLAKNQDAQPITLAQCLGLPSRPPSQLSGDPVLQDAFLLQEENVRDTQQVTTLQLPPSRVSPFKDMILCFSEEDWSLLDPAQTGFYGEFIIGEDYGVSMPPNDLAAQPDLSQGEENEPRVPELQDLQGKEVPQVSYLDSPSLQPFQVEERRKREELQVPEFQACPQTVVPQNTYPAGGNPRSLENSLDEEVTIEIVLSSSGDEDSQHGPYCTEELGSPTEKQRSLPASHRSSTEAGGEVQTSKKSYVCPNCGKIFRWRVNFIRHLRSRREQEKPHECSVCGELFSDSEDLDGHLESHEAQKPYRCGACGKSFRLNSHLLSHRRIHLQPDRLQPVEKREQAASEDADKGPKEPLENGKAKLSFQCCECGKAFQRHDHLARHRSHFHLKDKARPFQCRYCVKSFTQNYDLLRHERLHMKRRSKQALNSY
# UniProt Q96H22, whole entry: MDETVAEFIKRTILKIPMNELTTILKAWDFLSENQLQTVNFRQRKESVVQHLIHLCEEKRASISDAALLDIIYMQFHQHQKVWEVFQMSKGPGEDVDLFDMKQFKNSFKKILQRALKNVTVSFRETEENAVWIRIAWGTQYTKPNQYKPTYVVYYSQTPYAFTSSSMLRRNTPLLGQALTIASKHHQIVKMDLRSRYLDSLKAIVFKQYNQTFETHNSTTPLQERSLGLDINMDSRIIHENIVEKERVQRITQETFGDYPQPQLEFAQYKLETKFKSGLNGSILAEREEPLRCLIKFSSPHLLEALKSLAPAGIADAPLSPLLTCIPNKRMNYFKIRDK
# UniProt Q96QD9: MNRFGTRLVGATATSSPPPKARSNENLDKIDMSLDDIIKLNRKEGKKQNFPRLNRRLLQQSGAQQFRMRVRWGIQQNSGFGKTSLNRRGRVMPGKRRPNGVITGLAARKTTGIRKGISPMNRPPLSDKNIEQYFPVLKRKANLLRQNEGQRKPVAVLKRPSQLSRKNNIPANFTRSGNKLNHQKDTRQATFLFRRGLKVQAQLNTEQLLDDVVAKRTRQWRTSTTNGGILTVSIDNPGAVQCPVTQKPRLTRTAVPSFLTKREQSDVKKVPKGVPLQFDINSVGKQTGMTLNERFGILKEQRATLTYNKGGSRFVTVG
# UniProt Q96JH8: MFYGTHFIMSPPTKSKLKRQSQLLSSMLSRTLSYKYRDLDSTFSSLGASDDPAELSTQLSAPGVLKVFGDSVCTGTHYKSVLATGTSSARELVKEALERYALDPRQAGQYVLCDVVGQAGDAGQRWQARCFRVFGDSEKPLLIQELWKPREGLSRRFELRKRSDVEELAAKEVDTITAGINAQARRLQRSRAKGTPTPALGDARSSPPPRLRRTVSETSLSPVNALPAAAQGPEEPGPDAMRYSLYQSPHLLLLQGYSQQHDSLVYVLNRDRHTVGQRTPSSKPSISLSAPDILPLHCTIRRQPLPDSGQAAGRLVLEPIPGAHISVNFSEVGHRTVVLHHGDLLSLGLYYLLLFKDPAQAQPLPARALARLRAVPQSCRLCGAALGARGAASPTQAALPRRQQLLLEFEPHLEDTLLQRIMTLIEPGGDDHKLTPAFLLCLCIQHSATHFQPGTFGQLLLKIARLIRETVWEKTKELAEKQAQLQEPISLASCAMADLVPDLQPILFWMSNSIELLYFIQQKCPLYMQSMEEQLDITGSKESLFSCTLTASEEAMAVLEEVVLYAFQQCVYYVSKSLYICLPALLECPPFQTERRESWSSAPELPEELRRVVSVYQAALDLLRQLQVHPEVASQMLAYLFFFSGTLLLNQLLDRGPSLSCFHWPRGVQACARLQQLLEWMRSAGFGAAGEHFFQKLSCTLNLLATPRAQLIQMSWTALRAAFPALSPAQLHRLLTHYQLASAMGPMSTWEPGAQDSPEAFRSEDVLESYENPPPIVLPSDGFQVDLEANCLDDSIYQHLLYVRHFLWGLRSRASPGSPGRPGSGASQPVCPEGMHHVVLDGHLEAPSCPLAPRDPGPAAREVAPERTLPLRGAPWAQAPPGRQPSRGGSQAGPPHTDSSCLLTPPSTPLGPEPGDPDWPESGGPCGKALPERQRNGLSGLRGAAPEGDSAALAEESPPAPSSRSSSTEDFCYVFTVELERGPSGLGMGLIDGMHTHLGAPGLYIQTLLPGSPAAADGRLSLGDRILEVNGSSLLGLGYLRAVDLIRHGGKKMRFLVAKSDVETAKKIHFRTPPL
# UniProt Q96M89: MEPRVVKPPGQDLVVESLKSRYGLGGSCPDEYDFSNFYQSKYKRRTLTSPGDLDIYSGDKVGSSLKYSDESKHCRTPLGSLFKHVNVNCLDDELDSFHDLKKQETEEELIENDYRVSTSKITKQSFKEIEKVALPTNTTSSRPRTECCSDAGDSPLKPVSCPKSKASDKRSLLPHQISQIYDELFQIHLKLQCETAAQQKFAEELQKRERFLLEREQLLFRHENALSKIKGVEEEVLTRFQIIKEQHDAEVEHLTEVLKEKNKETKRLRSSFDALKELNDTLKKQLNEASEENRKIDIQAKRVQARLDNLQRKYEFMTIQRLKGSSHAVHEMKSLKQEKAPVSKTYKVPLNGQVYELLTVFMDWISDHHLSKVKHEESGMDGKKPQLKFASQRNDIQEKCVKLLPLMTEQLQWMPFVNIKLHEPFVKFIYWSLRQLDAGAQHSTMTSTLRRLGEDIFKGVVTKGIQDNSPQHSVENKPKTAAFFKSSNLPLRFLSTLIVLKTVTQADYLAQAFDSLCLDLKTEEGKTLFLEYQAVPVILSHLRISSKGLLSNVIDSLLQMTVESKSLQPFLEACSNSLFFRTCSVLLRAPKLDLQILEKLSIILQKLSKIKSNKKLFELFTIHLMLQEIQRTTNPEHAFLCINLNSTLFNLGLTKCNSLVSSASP
# UniProt Q96H35: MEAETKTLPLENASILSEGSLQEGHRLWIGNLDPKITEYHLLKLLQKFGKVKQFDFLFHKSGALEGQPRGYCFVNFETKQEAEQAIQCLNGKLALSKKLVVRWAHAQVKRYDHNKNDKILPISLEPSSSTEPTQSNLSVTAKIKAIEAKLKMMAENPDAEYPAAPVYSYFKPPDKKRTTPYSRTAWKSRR
# UniProt Q96IY1: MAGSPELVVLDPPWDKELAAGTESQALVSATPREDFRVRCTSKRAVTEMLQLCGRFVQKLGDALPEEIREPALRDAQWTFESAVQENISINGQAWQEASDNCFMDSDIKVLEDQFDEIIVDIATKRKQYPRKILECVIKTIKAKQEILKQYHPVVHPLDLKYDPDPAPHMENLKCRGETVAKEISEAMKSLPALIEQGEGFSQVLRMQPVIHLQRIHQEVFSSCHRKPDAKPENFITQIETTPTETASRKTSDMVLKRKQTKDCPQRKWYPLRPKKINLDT
# UniProt Q96G74: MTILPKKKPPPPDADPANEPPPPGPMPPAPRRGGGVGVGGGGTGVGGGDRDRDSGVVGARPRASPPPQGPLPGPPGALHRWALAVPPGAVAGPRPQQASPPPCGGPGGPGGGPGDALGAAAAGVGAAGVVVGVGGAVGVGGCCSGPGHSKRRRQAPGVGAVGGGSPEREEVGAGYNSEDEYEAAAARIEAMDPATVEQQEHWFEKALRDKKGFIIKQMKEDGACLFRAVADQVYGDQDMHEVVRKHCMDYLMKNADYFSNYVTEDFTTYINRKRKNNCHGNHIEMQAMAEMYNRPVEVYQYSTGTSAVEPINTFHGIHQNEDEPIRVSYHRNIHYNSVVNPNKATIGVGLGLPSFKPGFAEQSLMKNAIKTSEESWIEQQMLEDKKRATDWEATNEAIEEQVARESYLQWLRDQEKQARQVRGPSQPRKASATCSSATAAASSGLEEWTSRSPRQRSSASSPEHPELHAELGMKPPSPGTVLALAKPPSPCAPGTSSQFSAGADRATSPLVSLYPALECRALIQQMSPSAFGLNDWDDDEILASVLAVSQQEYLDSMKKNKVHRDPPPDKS
# UniProt Q96PK6: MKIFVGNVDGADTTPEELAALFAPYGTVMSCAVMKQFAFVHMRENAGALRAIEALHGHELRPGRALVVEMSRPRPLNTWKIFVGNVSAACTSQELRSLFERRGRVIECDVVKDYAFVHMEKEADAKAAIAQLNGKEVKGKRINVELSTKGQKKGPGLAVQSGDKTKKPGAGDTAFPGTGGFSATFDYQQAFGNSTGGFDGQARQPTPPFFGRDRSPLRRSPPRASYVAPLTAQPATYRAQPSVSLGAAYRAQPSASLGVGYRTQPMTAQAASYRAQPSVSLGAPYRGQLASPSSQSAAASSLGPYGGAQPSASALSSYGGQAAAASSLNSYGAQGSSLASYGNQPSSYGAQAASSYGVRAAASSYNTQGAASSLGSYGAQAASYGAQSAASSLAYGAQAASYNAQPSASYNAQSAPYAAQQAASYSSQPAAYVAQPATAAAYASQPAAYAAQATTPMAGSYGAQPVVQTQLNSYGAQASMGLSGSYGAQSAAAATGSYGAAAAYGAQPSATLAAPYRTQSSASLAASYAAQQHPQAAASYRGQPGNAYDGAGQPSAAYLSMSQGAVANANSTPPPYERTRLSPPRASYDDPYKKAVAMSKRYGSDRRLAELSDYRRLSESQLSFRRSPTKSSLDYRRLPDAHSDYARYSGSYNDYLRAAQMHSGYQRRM
# UniProt Q96IZ7: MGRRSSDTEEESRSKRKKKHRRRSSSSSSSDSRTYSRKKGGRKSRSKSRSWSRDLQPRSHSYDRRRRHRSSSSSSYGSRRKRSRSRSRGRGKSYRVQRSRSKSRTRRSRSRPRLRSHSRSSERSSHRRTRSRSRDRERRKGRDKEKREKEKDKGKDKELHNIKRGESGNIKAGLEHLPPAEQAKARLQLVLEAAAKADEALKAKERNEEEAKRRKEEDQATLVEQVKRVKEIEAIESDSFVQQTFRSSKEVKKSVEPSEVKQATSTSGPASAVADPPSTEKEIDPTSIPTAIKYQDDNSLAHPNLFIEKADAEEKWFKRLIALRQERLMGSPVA
# UniProt Q96N21: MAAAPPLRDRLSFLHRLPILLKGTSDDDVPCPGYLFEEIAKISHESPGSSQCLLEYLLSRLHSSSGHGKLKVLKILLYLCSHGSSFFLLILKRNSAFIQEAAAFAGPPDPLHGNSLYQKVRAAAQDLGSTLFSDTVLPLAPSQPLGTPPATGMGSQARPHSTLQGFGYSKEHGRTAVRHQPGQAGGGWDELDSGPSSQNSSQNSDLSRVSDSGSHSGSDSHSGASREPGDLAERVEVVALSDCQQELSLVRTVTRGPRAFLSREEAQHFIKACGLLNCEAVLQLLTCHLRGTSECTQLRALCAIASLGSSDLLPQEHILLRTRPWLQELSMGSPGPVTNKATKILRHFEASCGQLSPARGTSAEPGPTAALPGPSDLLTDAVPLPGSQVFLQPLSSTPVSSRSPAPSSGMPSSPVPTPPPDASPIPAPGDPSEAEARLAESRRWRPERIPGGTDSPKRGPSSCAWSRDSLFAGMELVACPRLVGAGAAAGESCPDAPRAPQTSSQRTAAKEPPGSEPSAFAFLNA
# UniProt Q96KS0, whole entry, looked up: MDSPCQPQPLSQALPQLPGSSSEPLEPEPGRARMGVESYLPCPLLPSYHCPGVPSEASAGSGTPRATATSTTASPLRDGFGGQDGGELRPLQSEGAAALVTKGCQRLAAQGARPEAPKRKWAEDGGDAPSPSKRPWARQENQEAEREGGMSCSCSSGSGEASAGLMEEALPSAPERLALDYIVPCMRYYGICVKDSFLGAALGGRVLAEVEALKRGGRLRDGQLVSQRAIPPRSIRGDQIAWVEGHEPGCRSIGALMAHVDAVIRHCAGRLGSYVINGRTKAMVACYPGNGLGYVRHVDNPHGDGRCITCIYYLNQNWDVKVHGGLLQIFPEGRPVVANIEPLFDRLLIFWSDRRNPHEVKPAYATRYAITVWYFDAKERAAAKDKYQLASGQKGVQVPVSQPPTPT
# This is one part of the list. Most values lie at the level of the controls, where differences are scatter.
# Compound: Cc1nc(Nc2ncc(C(=O)Nc3c(C)cccc3Cl)s2)cc(N2CCN(CCO)CC2)n1 [dasatinib]
# Experiment: log2 fold change of tryptic peptide abundance, ligand vs vehicle (limited proteolysis) (log2 ratio); higher = more trypsin-susceptible (destabilized)
# Conditions: ligand concentration: 5 uM; sample: K562 cleared lysate
row,Target,log2 fold change
1,"NAF1 (peptide sequence: NDQEPPPEALDFSDDEKEKEAK, peptide start residue: 303) (UniProt Q96HR8)",-0.649
2,"ZNF830 (peptide sequence: RKAPDADDQDVK, peptide start residue: 103) (UniProt Q96NB3)",-0.54
3,"PBK (peptide sequence: TPSKLSEK, peptide start residue: 9) (UniProt Q96KB5)",-0.631
4,"UBXN10 (peptide sequence: HFRPTDDLQTIVAVAEQK, peptide start residue: 214) (UniProt Q96LJ8)",0.387
5,"UniProt Q96RK0 (peptide sequence: VRPPPLKK, peptide start residue: 1333)",-0.433
6,"UniProt Q96IT1 (peptide sequence: IHLQPDRLQPVEKR, peptide start residue: 484)",0.457
7,"SCLY (peptide sequence: AAELVTQNCEAYEAHMR, peptide start residue: 308) (UniProt Q96I15)",-0.564
8,"WDR92 (peptide sequence: CGTFGATSLQQR, peptide start residue: 70) (UniProt Q96MX6)",0.116
9,"UniProt Q96H22 (peptide sequence: GPGEDVDLFDMK, peptide start residue: 91)",-0.434
10,"FYTTD1 (peptide sequence: QATFLFR, peptide start residue: 188) (UniProt Q96QD9)",0.111
11,"ZFP91 (peptide sequence: KAEYPRR, peptide start residue: 73) (UniProt Q96JP5)",-0.237
12,"UniProt Q96JH8 (peptide sequence: VFGDSVCTGTHYK, peptide start residue: 67)",-0.973
13,"CCDC138 (peptide sequence: LQCETAAQQK, peptide start residue: 191) (UniProt Q96M89)",-0.37
14,"EP400 (peptide sequence: KAGLWSQR, peptide start residue: 790) (UniProt Q96L91)",0.303
15,"RBM18 (peptide sequence: QFDFLFHK, peptide start residue: 53) (UniProt Q96H35)",-0.273
16,"ZNF668 (peptide sequence: GHTGERPYACADCGK, peptide start residue: 161) (UniProt Q96K58)",-0.508
17,"UniProt Q96Q04 (peptide sequence: ARPEVAPEGEPGAPDSR, peptide start residue: 1168)",-0.973
18,"NSL1 (peptide sequence: KPDAKPENFITQIETTPTETASR, peptide start residue: 227) (UniProt Q96IY1)",0.264
19,"OTUD5 (peptide sequence: ESYLQWLR, peptide start residue: 405) (UniProt Q96G74)",0.0865
20,"OXNAD1 (peptide sequence: EHICFEK, peptide start residue: 304) (UniProt Q96HP4)",0.164
21,"RBM14 (peptide sequence: AQPSVSLGAPYR, peptide start residue: 275) (UniProt Q96PK6)",-0.137
22,"ZFR (peptide sequence: INFVGGNKLQSTGNK, peptide start residue: 502) (UniProt Q96KR1)",0.374
23,"DOCK7 (peptide sequence: PGSFLLTSTSGR, peptide start residue: 1304) (UniProt Q96N67)",-0.876
24,"RSRC1 (peptide sequence: LQLVLEAAAK, peptide start residue: 187) (UniProt Q96IZ7)",0.115
25,"RMND5B (peptide sequence: CWYHSVFACPILR, peptide start residue: 330) (UniProt Q96G75)",0.242
26,"UniProt Q96N21 (peptide sequence: APQTSSQR, peptide start residue: 499)",-0.5
27,"EGLN2 (peptide sequence: LAAQGARPEAPK, peptide start residue: 107) (UniProt Q96KS0)",0.189
28,"L3MBTL3 (peptide sequence: DQHADDVKEDFEER, peptide start residue: 630) (UniProt Q96JM7)",-0.894

# 2 records drawn at random from those above:
row,Target,log2 fold change
4,"UBXN10 (peptide sequence: HFRPTDDLQTIVAVAEQK, peptide start residue: 214) (UniProt Q96LJ8)",0.387
28,"L3MBTL3 (peptide sequence: DQHADDVKEDFEER, peptide start residue: 630) (UniProt Q96JM7)",-0.894
